In patent publication US20160046716A1 (Dana-Farber, published 2016):
No constants are given. Whether binding was seen depends on the method and setting. A result given as binding can be weak or reduced; the word gives no strength.

Molecular target: MICA*019 (Homo sapiens)
Assay: Luminex bead assay (One Lambda kit), PE anti-human IgG secondary; bars assigned by their order in the legend box

- binding: binds
B1: MICA-Ab20 (antibody, V domains shown)
VH: QVQLQQWGAGLLKPSETLALTCAVSGGSFTDHYWSWIRQAPGKGLEWIGEINHSGVTNYNPSLKSRLTISVDTSKSQFSLRLTSVTAADTALYYCAKTGLYYDDVWGTFRPRGGFDSWGQGTLVTVSS
VL: DIVMTQSPDSLAVSLGERATINCKSSQSILYSSDNKNYLAWYQHKPGQPPKLLFYWASIRESGVPDRFSGGGSGTDFTLTISSLQAEDVAVYYCQQYYSPPCSFGQGTKLEIQ
notes: also called anti-MICA antibody ID-1; antibody ID 1
